Measured values published in the supplement of paper PMC10849652.
Some of the results follow.

Amino acid sequences for entries named in this document (tags omitted). A change or cut given only in a name is not applied to a line headed by its entry.
UniProt P25786: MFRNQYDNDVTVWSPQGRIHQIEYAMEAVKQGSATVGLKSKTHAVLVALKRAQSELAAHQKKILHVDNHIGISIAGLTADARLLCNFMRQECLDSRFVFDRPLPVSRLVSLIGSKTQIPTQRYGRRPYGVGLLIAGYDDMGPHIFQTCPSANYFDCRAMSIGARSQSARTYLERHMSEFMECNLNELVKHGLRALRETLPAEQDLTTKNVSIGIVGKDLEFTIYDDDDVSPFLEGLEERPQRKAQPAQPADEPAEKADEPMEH
UniProt P49720: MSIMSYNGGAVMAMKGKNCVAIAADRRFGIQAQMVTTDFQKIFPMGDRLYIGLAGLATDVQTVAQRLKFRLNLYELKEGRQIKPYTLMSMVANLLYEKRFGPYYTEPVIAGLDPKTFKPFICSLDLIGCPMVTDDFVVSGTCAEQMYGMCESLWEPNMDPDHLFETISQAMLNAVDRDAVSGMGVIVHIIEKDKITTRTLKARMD
UniProt Q15274: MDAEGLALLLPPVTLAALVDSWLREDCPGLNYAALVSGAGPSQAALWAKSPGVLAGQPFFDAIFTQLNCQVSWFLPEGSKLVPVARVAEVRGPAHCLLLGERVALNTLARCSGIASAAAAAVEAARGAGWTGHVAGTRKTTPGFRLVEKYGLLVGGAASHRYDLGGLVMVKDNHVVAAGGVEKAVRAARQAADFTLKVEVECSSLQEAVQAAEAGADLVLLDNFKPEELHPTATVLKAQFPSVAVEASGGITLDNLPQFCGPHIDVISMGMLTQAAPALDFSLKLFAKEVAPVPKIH
UniProt P49023, whole entry, looked up: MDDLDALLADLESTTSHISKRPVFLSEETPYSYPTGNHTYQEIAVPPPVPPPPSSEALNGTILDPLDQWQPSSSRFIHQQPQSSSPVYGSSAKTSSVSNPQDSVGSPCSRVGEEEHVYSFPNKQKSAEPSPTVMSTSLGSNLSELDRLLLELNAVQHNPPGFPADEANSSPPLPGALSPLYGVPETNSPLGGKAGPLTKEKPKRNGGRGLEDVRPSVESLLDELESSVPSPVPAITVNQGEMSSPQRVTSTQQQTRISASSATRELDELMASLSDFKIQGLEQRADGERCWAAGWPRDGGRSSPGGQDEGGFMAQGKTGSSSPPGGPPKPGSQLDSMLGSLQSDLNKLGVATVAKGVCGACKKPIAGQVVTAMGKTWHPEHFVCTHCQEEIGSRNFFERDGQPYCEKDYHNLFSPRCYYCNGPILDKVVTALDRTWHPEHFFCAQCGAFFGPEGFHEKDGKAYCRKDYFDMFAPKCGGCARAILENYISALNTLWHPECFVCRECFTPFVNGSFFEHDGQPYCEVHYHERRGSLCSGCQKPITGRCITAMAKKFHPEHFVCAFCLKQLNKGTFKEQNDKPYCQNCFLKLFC
UniProt Q53H96: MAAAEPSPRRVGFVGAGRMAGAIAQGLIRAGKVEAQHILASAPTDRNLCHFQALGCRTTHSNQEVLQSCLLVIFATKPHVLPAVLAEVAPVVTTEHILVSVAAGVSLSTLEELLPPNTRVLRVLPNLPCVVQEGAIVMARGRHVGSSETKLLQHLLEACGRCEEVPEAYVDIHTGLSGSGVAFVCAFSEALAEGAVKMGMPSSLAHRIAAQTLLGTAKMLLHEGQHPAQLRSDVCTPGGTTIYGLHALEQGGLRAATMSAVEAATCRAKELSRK
UniProt Q8TBF2: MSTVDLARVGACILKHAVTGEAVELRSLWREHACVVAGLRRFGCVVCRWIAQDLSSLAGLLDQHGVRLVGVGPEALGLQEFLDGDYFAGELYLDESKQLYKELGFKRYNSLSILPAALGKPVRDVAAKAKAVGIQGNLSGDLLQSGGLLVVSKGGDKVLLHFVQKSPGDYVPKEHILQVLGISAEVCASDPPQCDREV
UniProt P26599: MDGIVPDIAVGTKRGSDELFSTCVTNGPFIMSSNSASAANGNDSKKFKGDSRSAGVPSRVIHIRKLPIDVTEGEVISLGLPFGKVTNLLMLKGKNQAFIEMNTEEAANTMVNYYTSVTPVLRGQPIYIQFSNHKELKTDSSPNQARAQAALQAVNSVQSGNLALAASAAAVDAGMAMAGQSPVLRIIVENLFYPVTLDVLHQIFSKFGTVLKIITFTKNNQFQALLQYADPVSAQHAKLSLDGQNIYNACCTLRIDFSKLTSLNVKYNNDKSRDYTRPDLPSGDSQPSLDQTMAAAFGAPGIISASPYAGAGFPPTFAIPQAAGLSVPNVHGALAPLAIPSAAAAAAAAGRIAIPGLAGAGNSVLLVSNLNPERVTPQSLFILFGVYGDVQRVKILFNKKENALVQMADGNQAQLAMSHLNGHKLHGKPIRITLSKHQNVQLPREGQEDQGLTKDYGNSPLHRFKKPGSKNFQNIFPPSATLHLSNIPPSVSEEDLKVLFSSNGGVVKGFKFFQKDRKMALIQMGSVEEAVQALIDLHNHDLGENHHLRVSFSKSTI
UniProt P55036: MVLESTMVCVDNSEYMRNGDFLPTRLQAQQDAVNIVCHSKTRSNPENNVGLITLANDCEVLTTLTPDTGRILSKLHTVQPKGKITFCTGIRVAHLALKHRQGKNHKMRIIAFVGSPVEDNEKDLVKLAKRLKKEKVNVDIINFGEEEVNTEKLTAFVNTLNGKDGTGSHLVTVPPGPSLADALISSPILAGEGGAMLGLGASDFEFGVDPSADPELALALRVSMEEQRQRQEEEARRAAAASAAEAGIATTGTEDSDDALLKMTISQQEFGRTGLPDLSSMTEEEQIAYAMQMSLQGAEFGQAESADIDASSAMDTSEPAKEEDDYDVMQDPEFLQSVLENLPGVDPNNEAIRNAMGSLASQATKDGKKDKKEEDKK
UniProt Q9Y617: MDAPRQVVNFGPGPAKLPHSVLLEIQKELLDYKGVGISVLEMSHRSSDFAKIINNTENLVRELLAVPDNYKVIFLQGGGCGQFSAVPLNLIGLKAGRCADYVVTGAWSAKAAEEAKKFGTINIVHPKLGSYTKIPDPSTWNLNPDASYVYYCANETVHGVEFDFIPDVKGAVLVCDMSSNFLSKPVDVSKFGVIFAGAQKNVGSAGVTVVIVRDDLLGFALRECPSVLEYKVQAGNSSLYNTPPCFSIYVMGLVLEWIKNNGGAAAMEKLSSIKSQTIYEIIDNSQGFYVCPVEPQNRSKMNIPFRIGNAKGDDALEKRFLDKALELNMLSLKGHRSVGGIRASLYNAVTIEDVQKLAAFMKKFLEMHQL
UniProt O14818: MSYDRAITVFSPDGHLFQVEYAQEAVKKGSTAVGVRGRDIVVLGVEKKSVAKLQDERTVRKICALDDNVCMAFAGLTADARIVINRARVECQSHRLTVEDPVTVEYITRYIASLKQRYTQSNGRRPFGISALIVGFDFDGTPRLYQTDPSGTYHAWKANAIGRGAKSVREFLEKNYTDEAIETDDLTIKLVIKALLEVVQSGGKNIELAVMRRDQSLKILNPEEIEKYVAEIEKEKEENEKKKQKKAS
UniProt P08575: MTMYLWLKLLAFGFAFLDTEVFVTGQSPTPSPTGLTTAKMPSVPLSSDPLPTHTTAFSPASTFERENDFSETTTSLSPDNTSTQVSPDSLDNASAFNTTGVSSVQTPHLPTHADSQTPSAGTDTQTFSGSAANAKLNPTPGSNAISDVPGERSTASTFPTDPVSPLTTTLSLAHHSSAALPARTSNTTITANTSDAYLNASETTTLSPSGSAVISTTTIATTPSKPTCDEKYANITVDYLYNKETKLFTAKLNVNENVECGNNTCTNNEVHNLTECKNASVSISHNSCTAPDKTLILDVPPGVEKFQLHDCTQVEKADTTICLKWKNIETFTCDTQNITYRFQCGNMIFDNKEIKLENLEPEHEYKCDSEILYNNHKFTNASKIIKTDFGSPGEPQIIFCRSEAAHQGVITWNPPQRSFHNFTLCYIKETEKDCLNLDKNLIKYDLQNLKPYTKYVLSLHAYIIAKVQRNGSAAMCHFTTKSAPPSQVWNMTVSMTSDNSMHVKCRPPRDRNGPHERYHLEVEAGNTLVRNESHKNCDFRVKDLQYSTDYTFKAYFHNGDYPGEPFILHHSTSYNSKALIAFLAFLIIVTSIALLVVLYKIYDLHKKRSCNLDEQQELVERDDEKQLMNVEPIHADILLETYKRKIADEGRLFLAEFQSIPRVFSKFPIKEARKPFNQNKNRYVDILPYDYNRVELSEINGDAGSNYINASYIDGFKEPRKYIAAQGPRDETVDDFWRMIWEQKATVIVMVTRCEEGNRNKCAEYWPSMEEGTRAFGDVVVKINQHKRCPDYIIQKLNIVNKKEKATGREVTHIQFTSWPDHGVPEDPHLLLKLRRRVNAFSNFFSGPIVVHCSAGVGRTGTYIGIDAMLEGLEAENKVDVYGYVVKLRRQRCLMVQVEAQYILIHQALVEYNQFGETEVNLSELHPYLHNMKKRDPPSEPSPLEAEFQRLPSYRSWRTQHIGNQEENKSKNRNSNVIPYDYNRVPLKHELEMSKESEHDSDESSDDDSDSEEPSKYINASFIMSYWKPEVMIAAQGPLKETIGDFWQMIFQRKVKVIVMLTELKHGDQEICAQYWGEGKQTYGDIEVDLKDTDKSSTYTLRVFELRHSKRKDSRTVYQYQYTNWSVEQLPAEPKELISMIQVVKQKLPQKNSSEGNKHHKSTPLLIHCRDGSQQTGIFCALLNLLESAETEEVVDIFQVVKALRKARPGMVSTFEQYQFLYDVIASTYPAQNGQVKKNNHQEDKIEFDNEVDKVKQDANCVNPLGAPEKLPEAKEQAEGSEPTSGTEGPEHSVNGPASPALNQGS
UniProt Q969U7: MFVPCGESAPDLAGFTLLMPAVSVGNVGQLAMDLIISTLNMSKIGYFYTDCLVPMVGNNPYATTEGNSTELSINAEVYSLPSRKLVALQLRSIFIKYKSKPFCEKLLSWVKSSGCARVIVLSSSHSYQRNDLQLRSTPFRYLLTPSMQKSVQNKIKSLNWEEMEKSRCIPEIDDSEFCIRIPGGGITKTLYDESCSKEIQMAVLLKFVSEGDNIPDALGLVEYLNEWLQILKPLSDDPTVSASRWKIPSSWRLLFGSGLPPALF
UniProt Q5JS54: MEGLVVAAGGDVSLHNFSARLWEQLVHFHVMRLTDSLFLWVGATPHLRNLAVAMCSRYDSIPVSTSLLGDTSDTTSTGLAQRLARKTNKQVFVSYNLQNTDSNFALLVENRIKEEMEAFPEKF
UniProt Q06323: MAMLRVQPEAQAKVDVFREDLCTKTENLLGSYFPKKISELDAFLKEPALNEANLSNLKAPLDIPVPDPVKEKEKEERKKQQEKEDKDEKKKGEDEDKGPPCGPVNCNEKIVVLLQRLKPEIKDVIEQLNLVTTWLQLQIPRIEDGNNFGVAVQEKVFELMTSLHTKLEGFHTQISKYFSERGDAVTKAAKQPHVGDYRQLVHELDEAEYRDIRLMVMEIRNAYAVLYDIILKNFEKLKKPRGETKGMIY
UniProt Q9BVG9: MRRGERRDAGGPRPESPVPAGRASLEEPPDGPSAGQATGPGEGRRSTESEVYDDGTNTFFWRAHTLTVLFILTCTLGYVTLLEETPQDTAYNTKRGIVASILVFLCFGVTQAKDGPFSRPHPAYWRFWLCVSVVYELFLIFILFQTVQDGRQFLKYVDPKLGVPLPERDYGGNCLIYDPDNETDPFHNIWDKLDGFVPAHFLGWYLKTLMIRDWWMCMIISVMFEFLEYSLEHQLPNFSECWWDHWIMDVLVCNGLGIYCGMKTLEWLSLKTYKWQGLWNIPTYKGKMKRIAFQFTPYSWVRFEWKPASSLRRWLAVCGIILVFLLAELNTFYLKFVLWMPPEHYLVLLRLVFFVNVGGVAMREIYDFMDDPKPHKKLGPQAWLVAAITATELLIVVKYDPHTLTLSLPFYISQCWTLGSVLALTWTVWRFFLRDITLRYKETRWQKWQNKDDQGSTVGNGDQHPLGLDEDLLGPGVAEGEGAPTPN
UniProt P25787: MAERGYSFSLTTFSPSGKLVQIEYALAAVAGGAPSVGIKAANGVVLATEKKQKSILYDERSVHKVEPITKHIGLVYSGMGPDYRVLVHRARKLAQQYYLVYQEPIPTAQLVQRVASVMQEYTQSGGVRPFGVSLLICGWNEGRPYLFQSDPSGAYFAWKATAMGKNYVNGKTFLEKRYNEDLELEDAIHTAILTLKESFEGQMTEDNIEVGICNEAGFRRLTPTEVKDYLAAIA

Experiments:
Assay in all cases: log2 fold change, soluble protein after heating vs DMSO (PISA); higher = thermal stabilisation; K562 cells, 10 uM, 30 min; active = over 0.2 and 3.5 SD of the protein, either way, in both replicates (recomputed)
[1] = compound: CC1=C(C=C(C=C1)NC(=O)C2=CC(=CC=C2)C(C)(C)C#N)NC3=CC4=C(C=C3)N=CN(C4=O)C
Method in brief: (§1)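 For each measurement, 10 μM compound was applied for 30 min to K562 cells at 2×10^6 cells/mL. Aliquots were heated for 3 min across 48°C-58°C, pooled, and extracted in PBS with 0.5% NP-40 at 4°C; the supernatant after 21,000xg for 90 min was soluble protein. This was quantified by TMTpro 16plex LC-MS/MS with channel sums equalised, and thermal stability was reported relative to control samples from duplicates, on a log2 fold-change scale.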

[2] = compound: CC1=C(C=C(C=C1)NC(=O)C2=CC(=CC=C2)N(C)C)NC(=O)C3=CC=C(C=C3)O
Method in brief: as §1

[3] = compound: CC1=CC=C(C=C1)SC2=C3C=C(SC3=CN=C2)C(=O)N
Method in brief: as §1

[4] = compound: CC1=NC(=CC=C1)C2=C(N=C(N2)C(C)(C)C)C3=CC4=NC=CN=C4C=C3
Method in brief: as §1

Nexturastat A = compound: CCCCN(Cc1ccc(C(=O)NO)cc1)C(=O)Nc1ccccc1 [Nexturastat A]
Method in brief: as §1

vemurafenib = compound: CCCS(=O)(=O)Nc1ccc(F)c(C(=O)c2c[nH]c3ncc(-c4ccc(Cl)cc4)cc23)c1F [vemurafenib]
Method in brief: as §1

[5] = compound: CCCS(=O)(=O)Nc1ccc(F)c(C(=O)c2c[nH]c3ncc(Cl)cc23)c1F
Method in brief: as §1

[6] = compound: CCCc1cc(C)[nH]c(=O)c1CNC(=O)c1cc(-c2ccnc(N3CCN(C)CC3)c2)cc2c1cnn2C(C)C
Method in brief: as §1

givinostat = compound: CCN(CC)Cc1ccc2cc(COC(=O)Nc3ccc(C(=O)NO)cc3)ccc2c1 [givinostat]
Method in brief: as §1

barasertib = compound: CCN(CCCOc1ccc2c(Nc3cc(CC(=O)Nc4cccc(F)c4)[nH]n3)ncnc2c1)CCOP(=O)(O)O [barasertib]
Method in brief: as §1

[7] = compound: CC[C@@H]1C(=O)N(C)c2cnc(Nc3ccc(C(=O)NC4CCN(C)CC4)cc3OC)nc2N1C1CCCC1
Method in brief: as §1

volasertib = compound: CC[C@@H]1C(=O)N(C)c2cnc(Nc3ccc(C(=O)N[C@H]4CC[C@H](N5CCN(CC6CC6)CC5)CC4)cc3OC)nc2N1C(C)C [volasertib]
Method in brief: as §1

[8] = compound: CC[C@H](C)N1C=C(C2=C(C=C(C=C21)C3=CN=C(C=C3)N4CCNCC4)C(=O)NCC5=C(C=C(NC5=O)C)C)C
Method in brief: as §1

epoxomicin = compound: CC[C@H](C)[C@@H](C(=O)N[C@@H]([C@@H](C)O)C(=O)N[C@@H](CC(C)C)C(=O)[C@]1(CO1)C)NC(=O)[C@H]([C@@H](C)CC)N(C)C(=O)C [epoxomicin]
Method in brief: as §1

[9] = compound: CCn1c(C(=O)N(C2CC2)C2CC2)cc2c3c(ncn3C)c(Nc3cc(C)n(C)n3)nc21
Method in brief: as §1

[10] = compound: CCn1cc(-c2ccnc3[nH]c(-c4cccc(CN(C)C)c4)cc23)c(-c2ccc(NC(=O)N(C)C)cc2)n1
Method in brief: as §1

[11] = compound: CN(C)CC(=O)Nc1ccc2[nH]c(=O)c3ccccc3c2c1
Method in brief: as §1

rosiglitazone = compound: CN(CCOC1=CC=C(C=C1)C[C@H]2C(=O)NC(=O)S2)C3=CC=CC=N3 (racemic) [rosiglitazone]
Method in brief: as §1

[12] = compound: CN1C2=C(C3=C1C(=O)N(N=C3)CC4=CC(=CC=C4)N)SC(=C2)S(=O)C
Method in brief: as §1

[13] = compound: CN1CCC(CNc2ccc3ncc(-c4cccc(OC(F)(F)F)c4)n3n2)CC1
Method in brief: as §1

Measured: log2 fold change

PSMA1 isoform 2 (UniProt P25786)
inactive: [1] 0.019 | [2] 0.028 | [3] -0.013 | [4] -0.011 | Nexturastat A -0.02 | vemurafenib -0.029 | [5] -0.036 | [6] 0.003 | givinostat -0.051 | barasertib -0.047 | [7] 0.04 | volasertib 0.156 | [8] -0.066 | epoxomicin -0.164 | [9] 0.022 | [10] 0.041 | [11] -0.039 | rosiglitazone -0.03 | [12] 0.011 | [13] 0.05

PSMB3 (UniProt P49720)
inactive: [1] 0.02 | [2] 0.015 | [3] -0.058 | [4] -0.012 | Nexturastat A 0.043 | vemurafenib -0.032 | [5] -0.036 | [6] -0.015 | givinostat -0.028 | barasertib -0.044 | [7] 0.08 | volasertib 0.142 | [8] -0.052 | epoxomicin -0.134 | [9] 0.022 | [10] 0.034 | [11] -0.041 | rosiglitazone -0.059 | [12] 0.006 | [13] 0.086

QPRT (UniProt Q15274)
inactive: [1] -0.031 | [2] -0.017 | [3] 0.051 | [4] 0.005 | Nexturastat A -0.004 | vemurafenib -0.06 | [5] 0.007 | [6] -0.061 | givinostat -0.036 | barasertib 0.003 | [7] -0.009 | volasertib 0.067 | [8] -0.004 | epoxomicin -0.006 | [9] -0.022 | [10] 0.031 | [11] -0.02 | rosiglitazone -0.024 | [12] -0.024 | [13] -0.018

PXN (UniProt P49023)
inactive: [1] 0.019 | [2] 0.018 | [3] 0 | [4] 0.02 | Nexturastat A -0.106 | vemurafenib -0.005 | [5] -0.015 | [6] -0.067 | givinostat -0.079 | barasertib -0.022 | [7] 0.018 | volasertib -0.024 | [8] -0.002 | epoxomicin 0.005 | [9] -0.011 | [10] -0.031 | [11] 0.012 | rosiglitazone 0.016 | [12] -0.083 | [13] 0.077

PYCR3 (UniProt Q53H96)
inactive: [1] 0.019 | [2] -0.024 | [3] 0.024 | [4] -0.024 | Nexturastat A 0.013 | vemurafenib -0.024 | [5] -0.014 | [6] -0.051 | givinostat -0.006 | barasertib -0.006 | [7] 0.002 | volasertib 0.006 | [8] -0.016 | epoxomicin -0.041 | [9] -0.003 | [10] 0.003 | [11] -0.01 | rosiglitazone 0.014 | [12] -0.053 | [13] 0.034

PRXL2B isoform 3 (UniProt Q8TBF2)
inactive: [1] 0.033 | [2] -0.023 | [3] 0.012 | [4] 0.07 | Nexturastat A -0.177 | vemurafenib -0.008 | [5] 0.012 | [6] 0.026 | givinostat -0.062 | barasertib 0.003 | [7] -0.067 | volasertib 0.015 | [8] 0.04 | epoxomicin 0.008 | [9] -0.024 | [10] 0.026 | [11] -0.012 | rosiglitazone 0.045 | [12] -0.03 | [13] -0.072

PTBP1 (UniProt P26599)
inactive: [1] 0.076 | [2] -0.053 | [3] 0.074 | [4] 0.049 | Nexturastat A 0.073 | vemurafenib 0.065 | [5] 0.088 | [6] 0.003 | givinostat 0.046 | barasertib -0.029 | [7] -0.112 | volasertib -0.195 | [8] 0.065 | epoxomicin 0.01 | [9] -0.018 | [10] -0.054 | [11] 0.022 | rosiglitazone -0.017 | [12] -0.057 | [13] -0.085

PSMD4 (UniProt P55036)
inactive: [1] -0.001 | [2] 0.05 | [3] -0.035 | [4] -0.019 | Nexturastat A 0.115 | vemurafenib -0.058 | [5] -0.028 | [6] 0.02 | givinostat -0.03 | barasertib -0.033 | [7] 0.033 | volasertib 0.169 | [8] 0.017 | epoxomicin -0.184 | [9] 0.015 | [10] 0.1 | [11] -0.023 | rosiglitazone -0.048 | [12] 0.012 | [13] 0.037

PSAT1 (UniProt Q9Y617)
inactive: [1] 0.023 | [2] -0.001 | [3] 0.002 | [4] 0.033 | Nexturastat A -0.074 | vemurafenib 0.022 | [5] 0.026 | [6] -0.004 | givinostat -0.065 | barasertib 0.007 | [7] -0.016 | volasertib 0.057 | [8] -0.017 | epoxomicin 0.017 | [9] 0 | [10] 0 | [11] -0.016 | rosiglitazone -0.029 | [12] -0.05 | [13] 0.006

Pulled one by one from above (two):
PSMD4 (UniProt P55036)
inactive: [1] -0.001 | [2] 0.05 | [3] -0.035 | [4] -0.019 | Nexturastat A 0.115 | vemurafenib -0.058 | [5] -0.028 | [6] 0.02 | givinostat -0.03 | barasertib -0.033 | [7] 0.033 | volasertib 0.169 | [8] 0.017 | epoxomicin -0.184 | [9] 0.015 | [10] 0.1 | [11] -0.023 | rosiglitazone -0.048 | [12] 0.012 | [13] 0.037

PYCR3 (UniProt Q53H96)
inactive: [1] 0.019 | [2] -0.024 | [3] 0.024 | [4] -0.024 | Nexturastat A 0.013 | vemurafenib -0.024 | [5] -0.014 | [6] -0.051 | givinostat -0.006 | barasertib -0.006 | [7] 0.002 | volasertib 0.006 | [8] -0.016 | epoxomicin -0.041 | [9] -0.003 | [10] 0.003 | [11] -0.01 | rosiglitazone 0.014 | [12] -0.053 | [13] 0.034

Further records

PSMA7 (UniProt O14818)
inactive: [1] -0.007 | [2] 0.048 | [3] -0.054 | [4] -0.015 | Nexturastat A -0.011 | vemurafenib -0.022 | [5] -0.093 | [6] -0.006 | givinostat -0.079 | barasertib -0.02 | [7] 0.07 | volasertib 0.136 | [8] -0.026 | epoxomicin -0.139 | [9] 0.031 | [10] 0.096 | [11] -0.019 | rosiglitazone -0.032 | [12] 0.015 | [13] 0.073

PTPRC (UniProt P08575)
inactive: [1] 0.008 | [2] -0.004 | [3] 0.034 | [4] 0 | Nexturastat A -0.072 | vemurafenib -0.006 | [5] -0.015 | [6] -0.01 | givinostat -0.027 | barasertib 0.018 | [7] 0.082 | volasertib 0.023 | [8] 0 | epoxomicin 0.036 | [9] -0.011 | [10] -0.017 | [11] -0.019 | rosiglitazone -0.001 | [12] -0.014 | [13] 0.178

PSMG2 (UniProt Q969U7)
inactive: [1] 0.003 | [2] 0.036 | [3] 0.006 | [4] 0.028 | Nexturastat A -0.058 | vemurafenib -0.011 | [5] -0.008 | [6] -0.058 | givinostat -0.023 | barasertib -0.015 | [7] 0.005 | volasertib 0.012 | [8] -0.013 | epoxomicin -0.036 | [9] 0.008 | [10] -0.003 | [11] -0.006 | rosiglitazone 0 | [12] -0.087 | [13] -0.013

PSMG4 isoform 2 (UniProt Q5JS54)
inactive: [1] 0.099 | [2] -0.095 | [3] 0.061 | [4] -0.069 | Nexturastat A -0.099 | vemurafenib 0.017 | [5] 0.13 | [6] 0.405 | givinostat -0.067 | barasertib -0.019 | [7] 0.012 | volasertib -0.021 | [8] 0.074 | epoxomicin 0.201 | [9] -0.009 | [10] -0.107 | [11] 0.02 | rosiglitazone -0.082 | [12] -0.072 | [13] 0.208

PSME1 (UniProt Q06323)
inactive: [1] 0.012 | [2] -0.006 | [3] 0 | [4] 0.062 | Nexturastat A -0.16 | vemurafenib 0.04 | [5] -0.024 | [6] -0.008 | givinostat -0.017 | barasertib 0.003 | [7] -0.005 | volasertib 0.11 | [8] 0.03 | epoxomicin -0.008 | [9] 0.007 | [10] -0.054 | [11] 0.018 | rosiglitazone 0.019 | [12] -0.015 | [13] -0.028

PTDSS2 (UniProt Q9BVG9)
inactive: [1] -0.015 | [2] -0.02 | [3] 0.031 | [4] 0.047 | Nexturastat A -0.1 | vemurafenib -0.012 | [5] -0.003 | [6] 0.007 | givinostat 0.059 | barasertib 0.038 | [7] -0.072 | volasertib -0.137 | [8] -0.03 | epoxomicin -0.146 | [9] -0.002 | [10] -0.011 | [11] 0.007 | rosiglitazone 0.022 | [12] -0.075 | [13] -0.059

PSMA2 (UniProt P25787)
inactive: [1] 0.004 | [2] 0.013 | [3] -0.004 | [4] 0 | Nexturastat A 0.01 | vemurafenib -0.026 | [5] -0.029 | [6] 0.017 | givinostat -0.009 | barasertib -0.042 | [7] 0.028 | volasertib 0.117 | [8] -0.029 | epoxomicin -0.146 | [9] 0 | [10] 0.06 | [11] -0.004 | rosiglitazone -0.04 | [12] 0.018 | [13] -0.01
